In the supplement of paper PMC10849652 one finds log2 fold change data, which are given here for eight targets.

By UniProt entry, the sequences of proteins in these tests, tags left out. Where a name states a change or a piece, a line headed by the entry shows the natural chain unless it says otherwise.
UniProt Q9NTJ5: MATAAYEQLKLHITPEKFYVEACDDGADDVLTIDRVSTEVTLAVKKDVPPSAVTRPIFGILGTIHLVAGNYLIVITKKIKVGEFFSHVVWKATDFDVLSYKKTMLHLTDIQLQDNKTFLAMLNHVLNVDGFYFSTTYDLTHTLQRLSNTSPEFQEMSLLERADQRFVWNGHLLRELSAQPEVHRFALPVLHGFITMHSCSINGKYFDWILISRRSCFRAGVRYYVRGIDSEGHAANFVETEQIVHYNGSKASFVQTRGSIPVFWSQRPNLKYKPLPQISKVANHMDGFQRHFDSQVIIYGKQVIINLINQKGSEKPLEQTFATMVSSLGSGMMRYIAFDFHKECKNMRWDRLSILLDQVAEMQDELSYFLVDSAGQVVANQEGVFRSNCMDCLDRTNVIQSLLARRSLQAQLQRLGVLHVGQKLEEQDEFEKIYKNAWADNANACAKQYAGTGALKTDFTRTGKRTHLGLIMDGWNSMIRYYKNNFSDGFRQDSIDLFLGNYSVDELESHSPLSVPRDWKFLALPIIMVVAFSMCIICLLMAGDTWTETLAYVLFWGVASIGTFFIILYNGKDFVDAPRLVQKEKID
UniProt O94885: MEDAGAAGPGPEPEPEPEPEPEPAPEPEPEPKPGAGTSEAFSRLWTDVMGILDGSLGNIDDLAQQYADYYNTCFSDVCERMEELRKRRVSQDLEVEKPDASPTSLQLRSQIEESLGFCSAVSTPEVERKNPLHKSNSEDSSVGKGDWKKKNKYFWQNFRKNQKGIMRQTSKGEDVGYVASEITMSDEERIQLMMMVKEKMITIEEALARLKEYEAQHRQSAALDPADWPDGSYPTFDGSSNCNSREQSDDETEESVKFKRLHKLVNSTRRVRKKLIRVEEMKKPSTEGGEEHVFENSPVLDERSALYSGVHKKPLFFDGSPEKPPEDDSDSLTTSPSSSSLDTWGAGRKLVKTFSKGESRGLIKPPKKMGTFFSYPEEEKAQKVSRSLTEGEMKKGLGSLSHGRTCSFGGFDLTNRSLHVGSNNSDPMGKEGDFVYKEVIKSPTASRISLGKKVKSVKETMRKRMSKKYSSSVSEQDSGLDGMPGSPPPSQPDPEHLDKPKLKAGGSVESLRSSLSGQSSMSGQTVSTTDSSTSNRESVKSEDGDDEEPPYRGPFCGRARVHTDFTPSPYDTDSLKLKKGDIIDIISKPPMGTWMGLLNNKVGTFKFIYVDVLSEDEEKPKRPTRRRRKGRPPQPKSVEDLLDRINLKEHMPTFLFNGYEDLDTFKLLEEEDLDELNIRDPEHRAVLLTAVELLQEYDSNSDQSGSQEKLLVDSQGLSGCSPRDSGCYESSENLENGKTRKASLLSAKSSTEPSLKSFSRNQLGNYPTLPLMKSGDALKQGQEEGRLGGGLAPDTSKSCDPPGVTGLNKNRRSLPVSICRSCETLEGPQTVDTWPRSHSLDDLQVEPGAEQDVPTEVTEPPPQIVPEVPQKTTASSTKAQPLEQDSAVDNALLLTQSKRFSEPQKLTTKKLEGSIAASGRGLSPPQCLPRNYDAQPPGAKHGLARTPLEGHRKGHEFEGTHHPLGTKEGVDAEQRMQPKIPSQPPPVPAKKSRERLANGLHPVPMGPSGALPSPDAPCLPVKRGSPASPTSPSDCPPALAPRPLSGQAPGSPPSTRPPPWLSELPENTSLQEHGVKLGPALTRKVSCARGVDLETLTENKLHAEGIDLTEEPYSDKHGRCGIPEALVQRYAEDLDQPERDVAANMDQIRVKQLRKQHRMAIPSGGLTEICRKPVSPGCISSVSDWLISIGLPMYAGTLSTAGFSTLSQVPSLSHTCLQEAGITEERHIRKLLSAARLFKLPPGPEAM
UniProt O14521: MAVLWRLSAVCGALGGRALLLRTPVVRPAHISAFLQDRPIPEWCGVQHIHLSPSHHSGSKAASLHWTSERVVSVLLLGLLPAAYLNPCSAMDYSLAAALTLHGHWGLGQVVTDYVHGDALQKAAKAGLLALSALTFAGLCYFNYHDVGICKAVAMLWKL
UniProt Q15050: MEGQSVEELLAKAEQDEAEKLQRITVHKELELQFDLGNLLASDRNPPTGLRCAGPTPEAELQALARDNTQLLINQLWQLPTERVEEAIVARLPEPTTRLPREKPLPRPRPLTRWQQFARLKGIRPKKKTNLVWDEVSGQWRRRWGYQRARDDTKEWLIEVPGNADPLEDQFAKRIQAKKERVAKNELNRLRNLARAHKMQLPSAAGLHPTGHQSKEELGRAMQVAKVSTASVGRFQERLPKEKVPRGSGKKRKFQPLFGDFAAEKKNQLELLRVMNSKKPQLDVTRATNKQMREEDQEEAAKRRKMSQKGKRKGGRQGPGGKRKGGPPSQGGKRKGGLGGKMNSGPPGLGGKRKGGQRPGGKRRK
UniProt P26447: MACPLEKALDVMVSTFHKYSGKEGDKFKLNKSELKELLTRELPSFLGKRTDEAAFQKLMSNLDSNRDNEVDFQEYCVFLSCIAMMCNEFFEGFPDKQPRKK
UniProt O43818: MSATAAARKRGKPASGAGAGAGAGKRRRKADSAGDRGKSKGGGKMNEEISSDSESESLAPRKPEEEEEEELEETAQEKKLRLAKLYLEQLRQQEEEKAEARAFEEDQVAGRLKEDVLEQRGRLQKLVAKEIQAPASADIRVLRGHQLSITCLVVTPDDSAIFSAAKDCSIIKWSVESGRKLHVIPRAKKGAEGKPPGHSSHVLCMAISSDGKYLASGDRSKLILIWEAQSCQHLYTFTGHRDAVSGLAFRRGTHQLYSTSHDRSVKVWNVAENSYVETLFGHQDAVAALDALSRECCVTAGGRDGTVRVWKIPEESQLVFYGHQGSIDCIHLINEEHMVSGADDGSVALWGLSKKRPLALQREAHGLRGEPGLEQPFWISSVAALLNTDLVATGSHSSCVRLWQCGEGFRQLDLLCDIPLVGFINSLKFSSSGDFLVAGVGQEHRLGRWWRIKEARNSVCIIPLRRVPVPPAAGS
UniProt O00767: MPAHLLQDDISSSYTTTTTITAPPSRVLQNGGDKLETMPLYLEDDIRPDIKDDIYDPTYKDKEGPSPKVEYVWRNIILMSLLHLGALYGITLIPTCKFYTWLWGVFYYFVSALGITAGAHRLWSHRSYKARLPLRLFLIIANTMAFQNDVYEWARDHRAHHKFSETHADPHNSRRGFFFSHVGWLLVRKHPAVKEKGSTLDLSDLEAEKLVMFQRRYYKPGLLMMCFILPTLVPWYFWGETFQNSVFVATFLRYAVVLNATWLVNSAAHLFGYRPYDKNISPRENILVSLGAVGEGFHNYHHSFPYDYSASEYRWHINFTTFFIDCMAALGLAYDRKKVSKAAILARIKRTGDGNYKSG
UniProt P29034: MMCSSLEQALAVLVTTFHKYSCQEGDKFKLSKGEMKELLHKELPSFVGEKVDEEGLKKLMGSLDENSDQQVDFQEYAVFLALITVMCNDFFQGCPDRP

Some of the results follow. Residues, ends and D or L forms follow the SMILES beside them. *: point of attachment. Cbz = O=C(OCc1ccccc1)*

Holding throughout (assay): log2 fold change, soluble protein after heating vs DMSO (PISA); higher = thermal stabilisation; K562 cells, 10 uM, 30 min; active = over 0.2 and 3.5 SD of the protein, either way, in both replicates (recomputed)
Compound in one test: C#Cc1cccc(Nc2ncnc3cc(OCCOC)c(OCCOC)cc23)c1 [erlotinib]
The essentials:
(§1)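 For each measurement, 10 μM compound was applied for 30 min to K562 cells at 2×10^6 cells/mL. Aliquots were heated for 3 min across 48°C-58°C, pooled, and extracted in PBS with 0.5% NP-40 at 4°C; the supernatant after 21,000xg for 90 min was soluble protein. This was quantified by TMTpro 16plex LC-MS/MS with channel sums equalised, and thermal stability was reported relative to control samples from duplicates, on a log2 fold-change scale.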

Compound in test [1]: C/C(=N\NC(=O)C1=CC(=CC=C1)S(=O)(=O)N2CCOCC2)/C3=C(C=CC(=C3)Cl)O
The gist of the method:
as §1

Compound in test [2]: C1=CC(=C(C=C1Cl)C2=NC3=NC=CN=C3C(=N2)NC4=CC=NC=C4)F
The essentials: as §1

Compound in test [3]: C1=CC(=CC=C1C2=NC3=C(N2)C=C(C=C3)C(=O)N)OC4=CC=C(C=C4)Cl
The gist of the method:
as §1

Compound in test [4]: C1=CC2=C(C=CC(=C2)/C=C\3/C(=O)NC(=NCC4=CC=CS4)S3)N=C1
The essentials: as §1

Compound in test [5]: C1=CC2=NC=CN=C2C=C1/C=C/3\C(=O)NC(=O)S3
The essentials:
as §1

Compound in test [6]: C1=CC=C(C=C1)C2=NC(=C(N2)C3=CC=NC=C3)C4=CC(=C(C=C4)Cl)O
The essentials: as §1

Compound in test [7]: C1=CC=C2C(=C1)C3=NNC4=CC=CC(=C43)C2=O
The gist of the method:
as §1

Compound in test [8]: C1CCN(C1)C(=O)NC2=CC=CC(=C2)NC3=NC=C(C(=N3)NCCC4=CN=CN4)Br
The gist of the method: as §1

Compound in test [9]: C1CN(CCC1(CC2=CC=C(C=C2)Cl)N)C3=NC=NC4=C3C=CN4
The essentials: as §1

Compound in the next test: C1COCCN1CCN2C3=CC=CC=C3N=C2NC(=O)C4=CC(=CC=C4)[N+](=O)[O-] [IRAK-1-4 Inhibitor I]
The essentials: as §1

Compound in the next test: C=CC(=O)N1CCC[C@@H](n2nc(-c3ccc(Oc4ccccc4)cc3)c3c(N)ncnc32)C1 [ibrutinib]
The gist of the method: as §1

Compound in test [10]: CC(=O)c1cnc2ccc(-c3cc(Cl)c(O)c(Cl)c3)nc2c1N[C@H]1CC[C@H](CN(C)C)CC1
The essentials: as §1

Compound in the next test: CC(C)(C)Cn1c(N)nc2ccc(-c3[nH]c(C(C)(C)C)nc3-c3ccc(F)cc3)nc21 [ralimetinib]
The essentials:
as §1

Compound in test [11]: CC(C)(O)CC(=O)NCCn1ccc2ncnc(Nc3ccc(Oc4cccc(C(F)(F)F)c4)c(Cl)c3)c21
The gist of the method: as §1

Compound in test [12]: CC(C)C1=C2N=C(C=C(N2N=C1)NCC3=CC=CC=C3)NCCCCCCN
The essentials:
as §1

Compound in test [13]: CC(C)C[C@@H](C=O)NC(=O)[C@H](CC(C)C)NC(=O)[C@H](CC(C)C)NC(=O)OCc1ccccc1
The essentials: as §1

Compound in a further test: CC(C)N(C[C@H]1O[C@@H](n2cnc3c(N)ncnc32)[C@H](O)[C@@H]1O)[C@H]1C[C@@H](CCc2nc3cc(C(C)(C)C)ccc3[nH]2)C1 [pinometostat]
The gist of the method: as §1

Compound in test [14]: CC1=C(C2=C(C=C1)C(=O)C3=CC=CC=C3N2CCCN)C
The essentials:
as §1

Compound in test [15]: CC1=C(C(CC(=O)N1)C2=CC=C(C=C2)C(F)(F)F)C(=O)NC3=C(C=C4C(=C3)C=NN4)F
The essentials: as §1

On to SACM1L (UniProt Q9NTJ5), for which the log2 fold change in the test with erlotinib was inactive: 0.005; in [1], inactive: 0.1; in [2] it was inactive: 0.109; in [3] it was inactive: -0.061; in test [4], inactive: 0.039; in test [5] it was inactive: -0.007. Moreover, the log2 fold change in test [6] is inactive: 0.077; in test [7], inactive: 0.009; in test [8], inactive: 0.001; in test [9], inactive: 0.068; with IRAK-1-4 Inhibitor I, inactive: 0.008; with ibrutinib, inactive: -0.031. Moreover, the log2 fold change was inactive: -0.022 in test [10]; inactive: 0.064 with ralimetinib; inactive: -0.007 in test [11]; active: -0.262 in [12]; inactive: -0.01 in test [13]; inactive: -0.042 in the test with pinometostat. In addition, the log2 fold change in [14] is inactive: 0.029.
As to SASH1 (UniProt O94885), the log2 fold change with erlotinib is inactive: -0.013; in test [1], inactive: 0.12; in test [2], inactive: 0.145; in [3] it was inactive: -0.01; in [4] it was inactive: -0.104; in test [5] it was inactive: -0.009. Also, the log2 fold change in test [6] was inactive: 0.005; in test [7], inactive: 0.107; in [8] it was inactive: -0.041; in test [9], inactive: -0.079; with IRAK-1-4 Inhibitor I, inactive: 0.145; in the test with ibrutinib, inactive: -0.069. The log2 fold change is inactive: -0.097 in test [10]; inactive: -0.138 with ralimetinib; inactive: 0.002 in test [11]; inactive: -0.25 in test [12]; inactive: 0.152 in test [13]; inactive: 0.081 with pinometostat. Further, the log2 fold change in test [14] was inactive: 0.07.
As for SDHD (UniProt O14521), the log2 fold change with erlotinib was inactive: -0.107; in test [1] it was inactive: 0.006; in [2] it was inactive: 0.149; in test [3], inactive: 0.337; in test [4], inactive: -0.049; in test [5] it was inactive: 0.099. Besides, the log2 fold change in test [6] is inactive: 0.103; in [7], inactive: 0.105; in [8] it was inactive: -0.013; in test [9] it was inactive: -0.026; with ibrutinib, inactive: 0.04; in [10], inactive: 0.015. For the same target, the log2 fold change is inactive: -0.02 in the test with ralimetinib; inactive: -0.11 in test [11]; inactive: -0.01 in [12]; inactive: -0.144 in test [13]; inactive: 0.041 in test [15]; inactive: 0.05 in test [14].
RRS1 (UniProt Q15050): the log2 fold change with erlotinib is inactive: -0.099; in [1] it was inactive: -0.205; in [2], inactive: -0.536; in test [3], inactive: -0.003; in test [4] it was inactive: -0.095; in test [5], inactive: 0.004. Also, the log2 fold change in test [6] was inactive: -0.18; in test [7], inactive: -0.018; in [8], inactive: 0.162; in test [9], inactive: -0.219; with IRAK-1-4 Inhibitor I it was inactive: -0.084; in the test with ibrutinib, inactive: 0.04. For the same target, the log2 fold change was inactive: 0.217 in test [10]; inactive: 0.118 in the test with ralimetinib; inactive: 0.229 in test [11]; inactive: 0.312 in test [12]; inactive: 0.067 in [13]; inactive: 0.297 with pinometostat. Moreover, the log2 fold change in test [14] is active: -1.
Regarding S100A4 (UniProt P26447), the log2 fold change with erlotinib was inactive: -0.065; in test [1], inactive: -0.137; in test [3], inactive: 0.084; in test [4], inactive: 0.167; in test [6] it was inactive: 0.015; in test [7], inactive: -0.164. Moreover, the log2 fold change was inactive: 0.139 in the test with IRAK-1-4 Inhibitor I; inactive: -0.04 in test [10]; inactive: -0.008 with ralimetinib; inactive: -0.159 in test [12]; inactive: -0.019 in test [13]; inactive: -0.074 with pinometostat. In addition, the log2 fold change in test [15] was inactive: -0.077.
RRP9 (UniProt O43818): the log2 fold change with erlotinib is inactive: 0.018; in [1], inactive: -0.04; in test [2] it was inactive: -0.099; in test [3] it was inactive: -0.004; in test [4], inactive: -0.042; in [5] it was inactive: 0.03. In addition, the log2 fold change in test [6] was inactive: -0.114; in test [7], inactive: -0.085; in test [8], inactive: -0.081; in test [9], inactive: -0.016; with IRAK-1-4 Inhibitor I, inactive: -0.043; in the test with ibrutinib it was inactive: 0.017. Moreover, the log2 fold change in [10] is inactive: -0.062; with ralimetinib it was inactive: 0.014; in [11], inactive: 0.133; in test [12] it was inactive: -0.04; in [13], inactive: -0.002; with pinometostat, inactive: 0.01. Besides, the log2 fold change in test [14] is active: -0.432.
With SCD (UniProt O00767), the log2 fold change with erlotinib was inactive: 0.022; in test [1] it was inactive: -0.256; in test [2], inactive: 0.143; in test [3], inactive: -0.008; in [4] it was inactive: 0.024; in [5], inactive: 0.04. Further, the log2 fold change is inactive: -0.059 in [6]; inactive: -0.006 in test [7]; inactive: 0.126 in test [8]; inactive: 0.023 in test [9]; inactive: 0.048 with IRAK-1-4 Inhibitor I; inactive: -0.023 with ibrutinib. For the same target, the log2 fold change was inactive: 0.008 in test [10]; inactive: -0.148 with ralimetinib; inactive: -0.046 in [11]; inactive: -0.222 in test [12]; inactive: 0.101 in test [13]; inactive: 0 with pinometostat. Also, the log2 fold change in test [14] was inactive: -0.027.
Turning to S100A2 (UniProt P29034), the log2 fold change with erlotinib is inactive: 0.711; in [1], inactive: -0.465; in [3], inactive: -0.651; in test [4], inactive: 0.19; in test [5], inactive: -0.093; in [7], inactive: 0.084. Further, the log2 fold change in [8] was inactive: -0.014; in test [9], inactive: 0.431; with ibrutinib, inactive: 0.181; in test [10] it was inactive: 0.006; in [12] it was inactive: 0.113; in [15], inactive: -0.76. Also, in test [14], the log2 fold change was inactive: 0.115.
